Experimental data reported in publication PMC6509284, “Aurora B-INCENP Localization at Centromeres/Inner Kinetochores Is Required for Chromosome Bi-orientation in Budding Yeast” (Current Biology, 2019).
No constants are given. Whether binding was seen depends on the method and setting. Some entries that bind do so weakly or less than the wild type. Tags and fused reporters may be left off the sequences shown.

By UniProt entry, the sequences of proteins in these tests, tags left out. Where a name states a change or a piece, a line headed by the entry shows the natural chain unless it says otherwise.
UniProt Q06675: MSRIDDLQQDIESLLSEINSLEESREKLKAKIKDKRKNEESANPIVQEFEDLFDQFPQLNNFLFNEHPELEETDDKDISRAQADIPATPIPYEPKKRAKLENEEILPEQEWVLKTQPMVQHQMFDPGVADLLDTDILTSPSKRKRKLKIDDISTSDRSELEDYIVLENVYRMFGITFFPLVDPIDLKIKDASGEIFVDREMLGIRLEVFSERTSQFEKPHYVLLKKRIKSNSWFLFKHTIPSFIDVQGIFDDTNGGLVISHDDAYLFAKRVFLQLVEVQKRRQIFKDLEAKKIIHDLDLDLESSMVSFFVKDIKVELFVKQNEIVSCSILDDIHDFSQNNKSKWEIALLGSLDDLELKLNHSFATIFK

T1: Sli15 fused to the Gal4 DNA-binding domain (budding yeast (S. cerevisiae)) (UniProt P38283)
T1 sequence: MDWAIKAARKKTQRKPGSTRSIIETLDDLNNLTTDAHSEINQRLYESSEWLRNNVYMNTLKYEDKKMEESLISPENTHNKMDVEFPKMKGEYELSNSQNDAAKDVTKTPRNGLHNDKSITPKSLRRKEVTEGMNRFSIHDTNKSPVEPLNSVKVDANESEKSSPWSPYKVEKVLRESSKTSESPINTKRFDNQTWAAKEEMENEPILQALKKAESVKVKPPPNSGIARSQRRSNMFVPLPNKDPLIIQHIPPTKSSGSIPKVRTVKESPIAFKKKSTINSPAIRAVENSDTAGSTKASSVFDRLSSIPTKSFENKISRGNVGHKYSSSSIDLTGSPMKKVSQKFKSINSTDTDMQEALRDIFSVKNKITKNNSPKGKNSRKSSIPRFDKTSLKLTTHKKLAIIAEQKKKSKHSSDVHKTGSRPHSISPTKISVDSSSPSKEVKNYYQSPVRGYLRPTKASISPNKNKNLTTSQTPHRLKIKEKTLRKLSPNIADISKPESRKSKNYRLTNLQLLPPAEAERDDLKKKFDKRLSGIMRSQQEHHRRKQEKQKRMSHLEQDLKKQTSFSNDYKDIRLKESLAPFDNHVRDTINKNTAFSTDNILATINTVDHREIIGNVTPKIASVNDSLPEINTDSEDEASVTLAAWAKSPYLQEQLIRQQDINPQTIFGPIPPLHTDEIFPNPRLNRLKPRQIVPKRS

T2: Sli15ΔN fused to the Gal4 DNA-binding domain (budding yeast (S. cerevisiae)) (UniProt P38283)
T2 sequence: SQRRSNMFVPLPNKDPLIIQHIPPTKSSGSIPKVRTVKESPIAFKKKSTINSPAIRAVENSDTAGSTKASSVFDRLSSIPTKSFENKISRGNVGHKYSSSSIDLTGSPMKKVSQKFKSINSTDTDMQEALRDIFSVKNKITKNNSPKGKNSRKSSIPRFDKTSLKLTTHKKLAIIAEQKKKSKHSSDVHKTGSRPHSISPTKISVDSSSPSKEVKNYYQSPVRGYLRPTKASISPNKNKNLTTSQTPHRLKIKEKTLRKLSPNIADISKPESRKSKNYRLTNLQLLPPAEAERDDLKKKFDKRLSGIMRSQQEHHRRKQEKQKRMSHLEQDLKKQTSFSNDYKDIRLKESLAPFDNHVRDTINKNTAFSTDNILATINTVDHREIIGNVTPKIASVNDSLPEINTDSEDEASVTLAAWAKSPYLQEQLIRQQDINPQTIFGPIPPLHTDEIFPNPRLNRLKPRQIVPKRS

T3: Inn1 fused to the Gal4 DNA-binding domain (budding yeast (S. cerevisiae)) (UniProt P53901)
T3 sequence: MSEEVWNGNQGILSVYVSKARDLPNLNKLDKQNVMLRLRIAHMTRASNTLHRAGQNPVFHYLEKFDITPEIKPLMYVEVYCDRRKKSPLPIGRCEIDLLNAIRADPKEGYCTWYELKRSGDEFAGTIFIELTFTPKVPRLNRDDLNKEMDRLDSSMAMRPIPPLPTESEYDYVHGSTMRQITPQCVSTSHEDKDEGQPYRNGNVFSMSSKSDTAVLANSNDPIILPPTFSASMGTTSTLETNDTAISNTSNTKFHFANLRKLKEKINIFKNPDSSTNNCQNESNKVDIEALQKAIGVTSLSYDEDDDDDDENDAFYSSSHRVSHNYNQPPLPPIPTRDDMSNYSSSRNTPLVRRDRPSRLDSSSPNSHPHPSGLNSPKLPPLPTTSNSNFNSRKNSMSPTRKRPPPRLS


Columns and labels:
Assay in all cases: two-hybrid; Gal4 activation domain (pGADT7) and Gal4 DNA-binding domain (pGBKT7) fusions co-transformed into yeast PJ69-4A; growth on SC lacking tryptophan, leucine, histidine and adenine; 30°C for 2 days
[1] = target: T1, Sli15 fused to the Gal4 DNA-binding domain (budding yeast (S. cerevisiae))
[2] = target: T2, Sli15ΔN fused to the Gal4 DNA-binding domain (budding yeast (S. cerevisiae))
[3] = target: T3, Inn1 fused to the Gal4 DNA-binding domain (budding yeast (S. cerevisiae))

Row | binding [1] | binding [2] | binding [3] | Molecule
1 | binds | binds |  | Mcm21 fused to the Gal4 transcriptional activation domain (from UniProt Q06675 1-368)
2 | binds |  |  | Mcm21ΔN fused to the Gal4 transcriptional activation domain (from UniProt Q06675 51-368) (domain or fragment)
3 |  |  | binds | Hof1 fused to the Gal4 transcriptional activation domain (protein, UniProt Q05080 1-669) MSYSYEACFWDPNDNGVNILLGHISQGIRSCDSMILFFKQRSELEKDYARRLGAITGKLDKDIGTNMDYGKLNETFNVVLSVEKARAQSHSKQSEILFRQIYTDTKAFAANLQARYTTLSGKIERLRMDKFNKKKGCEVLQKKLQDAQIRFRDLQLNENNMIGAKRVEHNKRELLKWESNSQEYKVQLDVLKQEYKASQKFWIHEWAQLSCELQEMENARISFLQSKLQQFATSSMETYILEQTKMDMLTNHLNSFTAADEISTFSKENGTGRLKHKTSKGDMNSSANWAQMSSISTTSKKTESYMDNIRKLSSQLKETENKRKLASIDKYEKPLPSPEVTMATQFRNSTPVIRNETKVVANPTLSLRSSPVQLQSNVDDSVLRQKPDKPRPIVGEEQLKPDEDSKNPDEKGLMVHKRNQSLSSPSESSSSNPTDFSHIKKRQSMESMTTSVSSMANSIDDSQRFAKSWNSSNRKRKSMSHLQVPSSASSRSDDGGRTPNSAHNLNEDDYNTRRDTSTSTILFKPPVAVRGTSRGHTHRQSMIMQDSSNPIEDALYEMERIQSSSKPGTKTGNIMDERGVVRDRGITVTLPIVTSEGFPVIEYAKAMYPLIGNEAPGLANFHKGDYLLITEIVNKDWYKGEVYDNDRIDRNHRIGLIPYNFIQLLHQGL
